Measured values reported in patent US10118947B2, “Modulation of structured polypeptide specificity” (BICYCLE THERAPEUTICS LIMITED, priority 2013, dated 2018).
pIC50: −log10 of the molar value. At least one peptide structure holds a part that was inferred or is arguable (an end, a ring closure or a residue).

Chains of the proteins cited; added tags and fusions are not shown. Residues count along the entry.
UniProt P14272, 391-638 limits assumed: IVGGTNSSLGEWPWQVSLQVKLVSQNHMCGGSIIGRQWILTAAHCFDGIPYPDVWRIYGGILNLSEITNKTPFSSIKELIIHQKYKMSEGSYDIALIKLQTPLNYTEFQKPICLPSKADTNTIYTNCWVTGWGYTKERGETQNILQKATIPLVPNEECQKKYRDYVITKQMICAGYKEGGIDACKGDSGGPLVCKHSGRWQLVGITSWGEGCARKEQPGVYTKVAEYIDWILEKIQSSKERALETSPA

Target: T1, rat plasma Kallikrein (Rattus norvegicus, UniProt P14272)
T1 construct: polyhistidine tag (N, cleaved yes); proTEV cleavage site (pro-peptide linker) (N, cleaved yes); made in house; host or cells: HEK-293 (suspension-adapted)
Experiment: Functional enzyme inhibition assay with fluorogenic substrate Z-PheArg-AMC, rat plasma Kallikrein
Type: biochemical
Settings: Table 5; read-out: IC50 rat PK
Procedure: Functional enzyme assays were conducted in 10 mM Tris HCl, 150 mM NaCl, 10 mM MgCl2, 1 mM CaCl2) and 1 mg/mL BSA (all Sigma UK) pH7.4 at 25° C. in solid black 96 well plates. Briefly 26.5 pM human plasma Kallikrein (purchased from Stratech, UK) or 500 pM rat plasma Kallikrein (expressed and purified in house) were incubated in the absence or presence of increasing concentrations of test peptide for 15 minutes before addition of the fluorogenic substrate Z-PheArg-AMC (Enzo Lifesciences UK) to a final assay concentration of 100 μM in 4% DMSO. Release of AMC was measured using a Pherastar FS (BMG Labtech), excitation 360 nm, emission 460 nm. The rate of the linear phase of the reaction, typically 5 to 45 minutes, was calculated in MARS data analysis software (BMG labtech). […]
Peptides were dissolved as the TFA-salts in their powder form, and stock solutions were usually prepared in water. […] Extinction coefficients were calculated based on the Trp/Tyr content of the peptide, and that of TMB (the TMB core, when contained in a peptide, has an ε of ˜300 M^−1cm^−1). For peptides containing non-natural amino acids with suspected chromophoric properties (i.e. NorHar, 4PhenylPro, 3Pal, 4Pal, Tic, 4GuanPhe, 4,4-BPAI, 3,3-DPA, 1NAI, 2NAI, 4BenzylPro, Ind) concentrations were determined by weighing the powder and dissolving the peptide in a defined quantity of water.

`CC(C)C[C@@H]1NC(=O)[C@H](CC(=O)O)NC(=O)[C@H](CCC(N)=O)NC(=O)[C@H](Cc2c[nH]cn2)NC(=O)[C@H](CC(C)C)NC(=O)[C@@H]2CSCc3cc(cc(c3)CSC[C@@H](C(=O)N[C@@H](C)C(N)=O)NC1=O)CSC[C@H](NC(=O)[C@H](C)N)C(=O)N[C@@H](CO)C(=O)N[C@@H](Cc1c[nH]c3ccccc13)C(=O)N1CCC[C@H]1C(=O)N[C@@H](C)C(=O)N[C@@H](CCCCN)C(=O)N2` [Peptide 06-34-19] was tested. Which pIC50 did it give?
The pIC50 was 8.33.
